Reference: US5604209A, “Synergistic antiviral compositions” (Mitsubishi Chemical Corporation, priority 1993, dated 1997)
Where two headings read alike, the source gives them in different places. The name of at least one read-out is uncertain.

Target: T1, HIV-1 reverse transcriptase (Human immunodeficiency virus type 1 group M subtype B, UniProt P04585)
T1 construct: HIV-1 reverse transcriptase (RT)
Experiment: Inhibition of HIV-1 reverse transcriptase (incorporation of tritiated thymidine phosphate into cDNA), alone and combined with AZT-TP
Assay type: biochemical
Experimental: The inhibitory activity was evaluated on the basis of the incorporation Of tritiated thymidine phosphate into acid-precipitating cDNA in the presence of HIV-1 reverse transcriptase (RT).
To a reaction solution (50 mM Tris-HC1, pH 8.4, 0.1% Triton X-100, 100 mM magnesium chloride, 2 mM dithiothreitol, 50 mM potassium chloride, 0.1 mg/ml bovine serum albumin (nuclease-free, Worthington, Freehold, N.J.), 0.5 μCi [methyl-^3 H]TTP and 12 μg/ml poly(rA). p(dT)12-18)was added 10% solution of a test drug in dimethyl sulfoxide and RT (0.05 units) to obtain a reaction mixture of total volume of 50 μl. The mixture was incubated at 37° C. for 30 min and the reaction stopped with 2M EDTA (10 μl). The resultant reaction mixture (50 μl) was spotted on Whatman DE-81 filter paper circle. The circle was washed with 5% disodium hydrogenphosphate (×3), water (×2) and 95% ethanol (×2) and the radiation was counted with scintillation counter.
Thus, an isoborogram was prepared to evaluate the effect of combined use of AZT-TP and various allosteric inhibitors according to the method of Chou et al., Adv. Enzyme Regul., 22, 27-55 (1984) (FIG. 1). […]

What does the source list for `Cc1cn([C@H]2C[C@H](N=[N+]=[N-])[C@@H](CO[P@](=O)(O)O[P@](=O)(O)OP(=O)(O)O)O2)c(=O)[nH]c1=O` [AZT-TP, 3'-azide-3'-deoxythymidine triphosphate]?
IC50 (in the presence of MKC-442 at 1/2 concentration of its IC50, read from FIG. 1, read-out: concentration of AZT-TP required to obtain 50% inhibition of RT in the presence of MKC-442): ~0.75 nM; IC50 (used alone, poly(rA).p(dT)12-18 template, 37° C., 30 min, read-out: IC50 (concentration required to obtain 50% inhibition of RT when used alone)): 7.5 nM
